# Experimental data reported in publication PMC7819943, “Rice protein-binding microarrays: a tool to detect cis-acting elements near promoter regions in rice”.
# This is one part of the list.
# Biological target: T1, OsSMF1 (Oryza sativa, UniProt Q6ZLB0 1-436)
# T1 sequence: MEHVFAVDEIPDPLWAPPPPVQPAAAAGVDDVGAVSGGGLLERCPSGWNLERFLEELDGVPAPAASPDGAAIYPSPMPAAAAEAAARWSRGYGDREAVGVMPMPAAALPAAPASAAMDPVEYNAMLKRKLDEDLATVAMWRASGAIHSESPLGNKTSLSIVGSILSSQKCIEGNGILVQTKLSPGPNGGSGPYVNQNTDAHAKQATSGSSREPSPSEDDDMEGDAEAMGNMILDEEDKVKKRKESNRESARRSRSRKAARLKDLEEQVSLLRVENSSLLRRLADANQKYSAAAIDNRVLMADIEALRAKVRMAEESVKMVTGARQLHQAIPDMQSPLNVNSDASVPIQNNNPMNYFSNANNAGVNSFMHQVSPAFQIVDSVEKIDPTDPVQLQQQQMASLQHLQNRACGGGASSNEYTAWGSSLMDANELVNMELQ
# Experiment: protein-binding microarray (RPBM); PBS, 2% BSA, 51.3 ng/ul salmon testes DNA, 50 uM zinc acetate, 200 nM TF, 25 C, 1 h; high values mean tight binding
# Conditions: protein: recombinant; tags: N-terminal polyhistidine and DsRed monomer fusion (pET32a); chain copies: 2; label: CyDye5-dUTP incorporated in the synthesized complementary strand; 3' TTTTT single-stranded linker to array surface; dsDNA, one strand shown
# Method in brief: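 Per-feature fluorescence intensity (arbitrary units), read on an Axon 4000B scanner, is the binding signal. Transcription factors carrying an N-terminal polyhistidine tag and DsRed fusion were expressed in E. coli BL21-CodonPlus and purified on Ni–NTA. A custom Agilent array, made double-stranded by primer extension with Cy5-dUTP and blocked with 2% BSA, was incubated with 200 nM protein in PBS, 2% BSA, salmon testes DNA and 50 µM zinc acetate at 25 °C for 1 h and then washed.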
row,Sequence,binding signal
1,TTGGAAAGTTCATTGCCACGTCCCAAATATATACTCTCTTCGGAGTCACCTAGTGCAG,5750 fluorescence intensity (a.u.)
2,ACTTTGCAGCGAAGTAGCGTTGGGCTTTGGGCTCACGGGCCGGAGTCACCTAGTGCAG,24900 fluorescence intensity (a.u.)
3,GGCTGCTTTGATTAACTCGATCATGAGTCAATGGACCATGCGGAGTCACCTAGTGCAG,4910 fluorescence intensity (a.u.)
4,CCGCATCCTCTTCCACGCAAACGGCCTCTGCGCGCCGCCGCGGAGTCACCTAGTGCAG,3290 fluorescence intensity (a.u.)
5,CTCTGTGCGCAAGTCCACACGTCAACCATGGCCGTACGTACGGAGTCACCTAGTGCAG,7230 fluorescence intensity (a.u.)
6,GTATATTGGTGCAGCACCATATTGTGTTGTAGTGTAGTGACGGAGTCACCTAGTGCAG,3360 fluorescence intensity (a.u.)
7,TATACAAGTGATCCAAACACGTAAGATAAGCTGGGGCCAGCGGAGTCACCTAGTGCAG,24000 fluorescence intensity (a.u.)
8,ATAAATACTTAATTAATCATATAATAAGAGAGACTTTATTCGGAGTCACCTAGTGCAG,15900 fluorescence intensity (a.u.)
9,GGTATGGGGACGATTTTGTACCCGCGATGGGTGTGAGTATCGGAGTCACCTAGTGCAG,8740 fluorescence intensity (a.u.)
10,ACATCCCCGTACTATACGAGTCTACGACGATGACTATGCTCGGAGTCACCTAGTGCAG,3150 fluorescence intensity (a.u.)
11,GGTCTCCGTCCAAGTCAATTAGTCAAAATTATGCATCTAGCGGAGTCACCTAGTGCAG,3520 fluorescence intensity (a.u.)
12,GAACCCCATGCCCGCCACACGGATCCGCGCGCACCCATGGCGGAGTCACCTAGTGCAG,4250 fluorescence intensity (a.u.)
13,TGCGAGGTGGTGGTGATTGCTTCGTCGGCTGTTGATTTCTCGGAGTCACCTAGTGCAG,3300 fluorescence intensity (a.u.)
14,GCCGCTCGTCGACGTGGACATTCCCCGGCCCAACAACTGACGGAGTCACCTAGTGCAG,8110 fluorescence intensity (a.u.)
15,GTGGCATGCTTTTCAAACTGCTAAACGGTGTGACTCGTGCCGGAGTCACCTAGTGCAG,9580 fluorescence intensity (a.u.)
16,CCACACAGTCTACCTATACCTACTACTACCTGTCATCTTCCGGAGTCACCTAGTGCAG,20600 fluorescence intensity (a.u.)
17,ACAACAAACTACTCAAACTGTGGTAGCTGTCGTGGCGAGCCGGAGTCACCTAGTGCAG,4340 fluorescence intensity (a.u.)
18,TTGTTGGAATCAACTAGTCAGCATCTGCGTGCACACGGAGCGGAGTCACCTAGTGCAG,5920 fluorescence intensity (a.u.)
19,GGAGCCGTGGAGGAGTCGATGCCGTGGTGTGCGCGCGCGTCGGAGTCACCTAGTGCAG,3820 fluorescence intensity (a.u.)
20,CACCTCTTCTTGTCATGACTCCTAACAGTCAAGTTCCAACCGGAGTCACCTAGTGCAG,3250 fluorescence intensity (a.u.)
21,AATATCATCCGTGTCACTACCTAGCTCCTGCATGCTCTGCCGGAGTCACCTAGTGCAG,4560 fluorescence intensity (a.u.)
22,TCCGTTCTCGGCTCCCCGTCAGCTTGGTTCGCAGCGGTGTCGGAGTCACCTAGTGCAG,4600 fluorescence intensity (a.u.)
23,GATTCGGGAGGAAGAAGACCAGGTGCGCCAGCGTGGTGCACGGAGTCACCTAGTGCAG,6060 fluorescence intensity (a.u.)

# Pulled one by one from above:
row,Sequence,binding signal
15,GTGGCATGCTTTTCAAACTGCTAAACGGTGTGACTCGTGCCGGAGTCACCTAGTGCAG,9580 fluorescence intensity (a.u.)
6,GTATATTGGTGCAGCACCATATTGTGTTGTAGTGTAGTGACGGAGTCACCTAGTGCAG,3360 fluorescence intensity (a.u.)
